Laboratory results published in PMC6160412.
Substitutions are numbered along the chain they refer to. These are yes or no findings as the source states them, for the method shown. For some assays here: Binding calls can cover weak binding; strength is not graded here.

Chains of the proteins cited; added tags and fusions are not shown. Lines headed by an entry give the natural chain unless they say otherwise; changes in a name come on top. Residues count along the entry.
UniProt P58400: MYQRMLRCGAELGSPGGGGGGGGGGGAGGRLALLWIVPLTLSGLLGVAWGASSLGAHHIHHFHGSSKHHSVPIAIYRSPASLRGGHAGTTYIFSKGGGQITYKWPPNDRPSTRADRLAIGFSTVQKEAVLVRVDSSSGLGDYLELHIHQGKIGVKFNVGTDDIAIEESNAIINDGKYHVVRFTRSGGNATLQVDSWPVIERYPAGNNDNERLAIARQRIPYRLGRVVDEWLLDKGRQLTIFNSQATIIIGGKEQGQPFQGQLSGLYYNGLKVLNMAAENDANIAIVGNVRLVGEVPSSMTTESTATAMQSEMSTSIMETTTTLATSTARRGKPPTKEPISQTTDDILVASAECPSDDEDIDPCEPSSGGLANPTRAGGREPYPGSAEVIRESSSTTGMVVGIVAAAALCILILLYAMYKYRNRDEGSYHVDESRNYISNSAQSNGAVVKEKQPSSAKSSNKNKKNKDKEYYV
UniProt Q99K10, residues 46-666: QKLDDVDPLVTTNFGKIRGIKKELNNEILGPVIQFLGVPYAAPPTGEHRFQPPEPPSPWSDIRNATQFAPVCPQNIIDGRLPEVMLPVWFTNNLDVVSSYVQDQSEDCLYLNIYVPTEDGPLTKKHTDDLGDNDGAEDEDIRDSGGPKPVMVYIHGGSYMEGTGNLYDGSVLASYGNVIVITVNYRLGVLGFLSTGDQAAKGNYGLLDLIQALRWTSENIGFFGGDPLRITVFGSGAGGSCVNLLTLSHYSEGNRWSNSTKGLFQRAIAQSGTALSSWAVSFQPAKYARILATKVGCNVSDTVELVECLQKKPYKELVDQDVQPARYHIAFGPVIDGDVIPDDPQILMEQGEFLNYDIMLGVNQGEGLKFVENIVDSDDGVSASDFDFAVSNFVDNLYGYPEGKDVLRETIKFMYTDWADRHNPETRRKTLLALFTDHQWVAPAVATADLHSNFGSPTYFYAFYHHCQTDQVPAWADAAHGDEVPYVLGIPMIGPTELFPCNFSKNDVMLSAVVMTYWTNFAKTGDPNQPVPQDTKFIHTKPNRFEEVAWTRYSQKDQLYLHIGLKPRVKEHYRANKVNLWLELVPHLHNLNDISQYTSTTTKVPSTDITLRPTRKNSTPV

Assays:
[1] = biological target: human LRRTM2 LRR domain, wild type (human) (UniProt O43300); assay: SPR; competition: LRRTM2 immobilised; Nrxn1β (–S4):NL1 mixtures at 1:1 or 1:2.5 molar ratio co-injected, two-fold dilutions from 40 µM Nrxn1β and 40 or 100 µM NL1; 25 °C; same buffer as the direct SPR; both purified
[2] = biological target: human LRRTM2 LRR domain, H355A mutant (human) (UniProt O43300); assay: crystal structure; 20 µM LRRTM2^H355A and 40 µM Nrxn1β mixed 1:2 with 2 mM CaCl2, neuraminidase added; 15% PEG3350, 0.1 M sodium/potassium phosphate pH 6.8, 20 °C; four complexes in the asymmetric unit; both purified
[3] = biological target: T1, LRRTM2-based LRRTM2–LRRTM3 chimera (LRRTM2+3) LRR (human) (UniProt O43300); assay: SPR; Biacore T200; wild-type or mutant LRRTM immobilised on a CM5 chip by amine coupling; Nrxn1β as analyte in two-fold dilutions from 40 µM (from 160 µM for +S4 and R206A); 25 °C; 20 mM Hepes-NaOH pH 7.5, 150 mM NaCl, 2 mM CaCl2, 0.005% Tween-20, 0.5 g/L BSA; equilibrium KD; both purified
T1 sequence: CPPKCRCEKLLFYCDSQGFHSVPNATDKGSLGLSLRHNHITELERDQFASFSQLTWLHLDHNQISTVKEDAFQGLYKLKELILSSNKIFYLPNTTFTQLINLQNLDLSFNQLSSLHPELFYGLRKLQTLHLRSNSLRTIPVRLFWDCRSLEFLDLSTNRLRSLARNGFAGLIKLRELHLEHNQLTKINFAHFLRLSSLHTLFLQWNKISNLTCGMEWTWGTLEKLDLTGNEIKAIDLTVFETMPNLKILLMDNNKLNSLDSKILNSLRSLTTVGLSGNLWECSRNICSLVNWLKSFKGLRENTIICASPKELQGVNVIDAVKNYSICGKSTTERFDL

[4] = biological target: T2, human LRRTM2 LRR domain, E348Q mutant (human) (UniProt O43300); assay: as above
T2 sequence: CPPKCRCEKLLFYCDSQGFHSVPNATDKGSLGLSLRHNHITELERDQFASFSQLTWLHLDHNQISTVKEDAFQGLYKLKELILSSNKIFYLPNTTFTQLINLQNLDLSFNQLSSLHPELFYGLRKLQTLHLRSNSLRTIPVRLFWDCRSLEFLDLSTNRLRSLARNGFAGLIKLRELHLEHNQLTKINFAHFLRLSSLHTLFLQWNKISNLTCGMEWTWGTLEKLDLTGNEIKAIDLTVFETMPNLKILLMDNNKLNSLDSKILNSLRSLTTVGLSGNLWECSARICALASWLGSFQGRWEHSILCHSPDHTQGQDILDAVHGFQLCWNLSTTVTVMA

[5] = biological target: T3, human LRRTM2 LRR domain, F357A mutant (human) (UniProt O43300); assay: as above
T3 sequence: T2 sequence with Q315E, F324A

[6] = biological target: human Nrxn1β LNS domain (–S4), wild type (human) (UniProt P58400); assay: SPR; competition: LRRTM2 immobilised; Nrxn1β (–S4):NL1 mixtures at 1:1 or 1:2.5 molar ratio co-injected, two-fold dilutions from 40 µM Nrxn1β and 40 or 100 µM NL1; 25 °C; same buffer as the direct SPR; both purified
[7] = biological target: GST-fused human Nrxn1β (–S4) LNS domain (human) (UniProt P58400); assay: pull-down; GST-Nrxn1β (–S4) (5 µM) on Glutathione Sepharose FF with NL1 (5 µM) and LRRTM2 at 1:1:1 or 1:1:5 molar ratio; 20 mM Hepes-NaOH pH 7.5, 150 mM NaCl, 2 mM CaCl2, 0.005% Tween-20; SDS-PAGE with Coomassie staining; both purified
[8] = biological target: human LRRTM2 LRR domain, wild type (human) (UniProt O43300); assay: SPR; Biacore T200; wild-type or mutant LRRTM immobilised on a CM5 chip by amine coupling; Nrxn1β as analyte in two-fold dilutions from 40 µM (from 160 µM for +S4 and R206A); 25 °C; 20 mM Hepes-NaOH pH 7.5, 150 mM NaCl, 2 mM CaCl2, 0.005% Tween-20, 0.5 g/L BSA; equilibrium KD; both purified

Substance: human Nrxn1β LNS domain (–S4), wild type (from UniProt P58400-1) (domain or fragment)
- binding [1]: binds
- binding [2]: binds
- binding [3]: no binding (tested: 40 µM)
- binding [4]: no binding (tested: 40 µM)
- binding [5]: no binding (tested: 40 µM)

Substance: mouse NL1 extracellular domain (from UniProt Q99K10 46-666) (domain or fragment)
- binding [6]: binds
- binding [7]: binds

Substance: human Nrxn1β LNS domain (–S4), D141A mutant (from UniProt P58400-2) (domain or fragment)
- binding [8]: binds weakly
